# Laboratory results: PubChem BioAssay AID248 (DTP/NCI, 2004)
# The list is a part of this screen's results and no random one: it gathers tests that were run many times, whatever their T/C, doses with no T/C, and many T/C values between a quarter and a half above the control. Other doses and runs of a compound stand elsewhere. T/C: endpoint of the treated group in % of that of the vehicle group. Some doses have a count of surviving animals in place of a T/C: the source files T/C as zero there, which appears to mark a toxic dose or a test without result, not a measured value. Some doses without a T/C left all or most animals alive at the check, yet need not have been tolerated: the source hardly ever lists a survival T/C far under the control, and the zero likely stands for such cases as well. Survivors were counted at the toxicity check, usually on the fifth day, unless a day is given; later deaths do not show. Schedule codes are those of the source, read here as Q, the interval in days (D) or hours (H), X, the number of doses. Some structures stand for samples that the source files as different forms (salt, stereo form or complex); doses refer to the form tested. Some entries were tested several times; the results are listed from low to high. Some schedules carry Z or #; the key to these is not given. For survival time, this PubChem deposit counts one and a half times the control or more as active, and values a quarter to a half above the control carry no call in these data; other NCI protocols may use other cut-offs. Some T/C values carry the count of animals alive at the toxicity check (mostly the fifth day); where none is given, no animal had died by that day.
# Tested on: L1210 leukemia ip in BDF1 mice, survival T/C
# Experiment: NCI In Vivo Anticancer Drug Screen. Data for tumor model L1210 Leukemia (intraperitoneal) in B6D2F1 (BDF1) mice
# Details: T/C endpoint: mean survival time, higher T/C = longer survival
# [1] = dose: 300.0 mg/kg/injection, schedule: Q01DX001 (ip), vehicle: saline
# [2] = dose: 100.0 mg/kg/injection, schedule: Q01DX001 (ip), vehicle: carboxymethylcellulose (CMC)
# [3] = dose: 200.0 mg/kg/injection, schedule: Q01DX001 (ip), vehicle: carboxymethylcellulose (CMC)
# [4] = dose: 400.0 mg/kg/injection, schedule: Q01DX001 (ip), vehicle: carboxymethylcellulose (CMC)
# [5] = dose: 100.0 mg/kg/injection, schedule: Q01DX009 (ip), vehicle: saline with Tween-80
# [6] = dose: 20.0 mg/kg/injection, schedule: Q01DX009 (ip), vehicle: Klucel (hydroxypropylcellulose) (HPC)
# [7] = dose: 400.0 mg/kg/injection, schedule: Q01DX001 (ip), vehicle: saline
smiles,measurement,setting,value
CSC(c1ccccc1F)=[N+]1CCCCC1,survivor count,"dose: 40.0 mg/kg/injection, schedule: Q01DX001 (ip), vehicle: saline",3 of 6
same,survivor count,"dose: 75.0 mg/kg/injection, schedule: Q01DX001 (ip), vehicle: saline",1 of 6
same,survivor count,"dose: 80.0 mg/kg/injection, schedule: Q01DX001 (ip), vehicle: saline",2 of 6
same,survivor count,"dose: 150.0 mg/kg/injection, schedule: Q01DX001 (ip), vehicle: saline",0 of 6
same,survivor count,[1],0 of 6
ClC1(Cl)CC2CC1C1C3CC(C4OC34)C21 (stereo not drawn),survivor count,[2],0 of 4
same,survivor count,[3],1 of 4
same,survivor count,[4],0 of 4
NCCSC1(O)C(=O)c2ccccc2-c2ccccc21 (stereo not drawn),survivor count,[1],3 of 6
CCCCCCCCN(C)N=Nc1ccc(Cl)cc1C(=O)O,T/C,"dose: 100.0 mg/kg/injection, schedule: Q01DX009 (ip), vehicle: Klucel (hydroxypropylcellulose) (HPC)",129 % of control
same,survivor count,"dose: 100.0 mg/kg/injection, schedule: Q04DX003 (ip), vehicle: Klucel (hydroxypropylcellulose) (HPC)",6 of 6
same,survivor count,"dose: 200.0 mg/kg/injection, schedule: Q04DX003 (ip), vehicle: Klucel (hydroxypropylcellulose) (HPC)",6 of 6
same,T/C,"dose: 300.0 mg/kg/injection, schedule: Q01DX009 (ip), vehicle: Klucel (hydroxypropylcellulose) (HPC)",131 % of control
same,survivor count,"dose: 400.0 mg/kg/injection, schedule: Q01DX009 (ip), vehicle: Klucel (hydroxypropylcellulose) (HPC)",3 of 6
same,survivor count,"dose: 400.0 mg/kg/injection, schedule: Q04DX003 (ip), vehicle: Klucel (hydroxypropylcellulose) (HPC)",6 of 6
same,survivor count,"dose: 600.0 mg/kg/injection, schedule: Q04DX003 (ip), vehicle: Klucel (hydroxypropylcellulose) (HPC)",1 of 6
C[CH2][Pb]([Br])([CH2]C)[CH2]C,survivor count,"dose: 50.0 mg/kg/injection, schedule: Q01DX009 (ip), vehicle: saline with Tween-80",3 of 3
same,survivor count,[5],0 of 3
same,survivor count,"dose: 100.0 mg/kg/injection, schedule: Q04DX002 (ip), vehicle: saline with Tween-80",3 of 3
same,survivor count,"dose: 200.0 mg/kg/injection, schedule: Q04DX002 (ip), vehicle: saline with Tween-80",1 of 3
same,survivor count,"dose: 400.0 mg/kg/injection, schedule: Q04DX002 (ip), vehicle: saline with Tween-80",0 of 3
CCCCCCCCCCCCCCCC[N+]1(CC)CCOCC1,T/C,"dose: 10.0 mg/kg/injection, schedule: Q01DX009 (ip), vehicle: Klucel (hydroxypropylcellulose) (HPC)","98 [5 of 6 alive], 102, 109, 117 % of control"
same,T/C,[6],"87 [5 of 6 alive], 92, 109 % of control"
same,survivor count,[6],1 of 3
same,survivor count,"dose: 20.0 mg/kg/injection, schedule: Q01DX009 (ip), vehicle: saline",0 of 3 and 5 of 6
same,survivor count,"dose: 20.0 mg/kg/injection, schedule: Q04DX002 (ip), vehicle: saline",6 of 6
same,survivor count,"dose: 40.0 mg/kg/injection, schedule: Q01DX009 (ip), vehicle: Klucel (hydroxypropylcellulose) (HPC)",0 of 3 and 5 of 6
same,survivor count,"dose: 40.0 mg/kg/injection, schedule: Q01DX009 (ip), vehicle: saline",0 of 3 and 1 of 6
same,survivor count,"dose: 40.0 mg/kg/injection, schedule: Q04DX002 (ip), vehicle: Klucel (hydroxypropylcellulose) (HPC)",2 of 3
same,survivor count,"dose: 100.0 mg/kg/injection, schedule: Q04DX002 (ip), vehicle: Klucel (hydroxypropylcellulose) (HPC)","0 of 6, 1 of 3, 3 of 3"
same,survivor count,"dose: 100.0 mg/kg/injection, schedule: Q04DX002 (ip), vehicle: saline",1 of 3 and 2 of 6
same,survivor count,"dose: 200.0 mg/kg/injection, schedule: Q04DX002 (ip), vehicle: Klucel (hydroxypropylcellulose) (HPC)",0 of 6 and 2 of 3
same,survivor count,"dose: 200.0 mg/kg/injection, schedule: Q04DX002 (ip), vehicle: saline",0 of 3 and 0 of 6
same,survivor count,"dose: 400.0 mg/kg/injection, schedule: Q04DX002 (ip), vehicle: Klucel (hydroxypropylcellulose) (HPC)",0 of 3 and 0 of 6
same,survivor count,"dose: 400.0 mg/kg/injection, schedule: Q04DX002 (ip), vehicle: saline",0 of 3 and 0 of 6
CN(N=O)C(=O)NCCn1cnc2c(=S)nc[nH]c21,survivor count,"dose: 200.0 mg/kg/injection, schedule: Q01DX Z (ip), vehicle: carboxymethylcellulose (CMC)",1 of 6
same,survivor count,"dose: 250.0 mg/kg/injection, schedule: Q01DX Z (ip), vehicle: carboxymethylcellulose (CMC)",1 of 6
same,survivor count,"dose: 300.0 mg/kg/injection, schedule: Q01DX Z (ip), vehicle: carboxymethylcellulose (CMC)",3 of 6
C#CCOC(=O)C1C2CCC(O2)C1C(=O)O (stereo not drawn),survivor count,"dose: 5.0 mg/kg/injection, schedule: Q01DX009 (ip), vehicle: saline",1 of 6
same,survivor count,"dose: 10.0 mg/kg/injection, schedule: Q01DX009 (ip), vehicle: saline with Tween-80",0 of 6
same,survivor count,"dose: 20.0 mg/kg/injection, schedule: Q01DX009 (ip), vehicle: saline with Tween-80",0 of 6
same,survivor count,"dose: 40.0 mg/kg/injection, schedule: Q01DX009 (ip), vehicle: saline with Tween-80",0 of 6
same,survivor count,[5],0 of 6
same,survivor count,"dose: 200.0 mg/kg/injection, schedule: Q01DX009 (ip), vehicle: saline with Tween-80",0 of 6
same,survivor count,"dose: 400.0 mg/kg/injection, schedule: Q01DX009 (ip), vehicle: saline with Tween-80",0 of 6
O=CC1=C(Cl)c2ccccc2CC1,survivor count,"dose: 25.0 mg/kg/injection, schedule: Q04DX003 (ip), vehicle: acetone",3 of 6
same,survivor count,"dose: 50.0 mg/kg/injection, schedule: Q04DX003 (ip), vehicle: acetone",0 of 6
same,survivor count,"dose: 100.0 mg/kg/injection, schedule: Q04DX003 (ip), vehicle: acetone",0 of 6
same,survivor count,"dose: 200.0 mg/kg/injection, schedule: Q04DX003 (ip), vehicle: acetone",0 of 6
same,survivor count,"dose: 400.0 mg/kg/injection, schedule: Q04DX003 (ip), vehicle: acetone",0 of 6
CCN(CC)Cc1c(C)[nH]c2c(OC)cccc2c1=O,survivor count,"dose: 200.0 mg/kg/injection, schedule: Q01DX009 (ip), vehicle: water",0 of 6
same,survivor count,"dose: 200.0 mg/kg/injection, schedule: Q04DX003 (ip), vehicle: water",2 of 6
same,survivor count,"dose: 300.0 mg/kg/injection, schedule: Q01DX009 (ip), vehicle: water",0 of 6
same,survivor count,"dose: 400.0 mg/kg/injection, schedule: Q04DX003 (ip), vehicle: water",0 of 6
CC1(C)C(=O)C(C)(C)C1O,survivor count,[7],2 of 6
CCOC(=O)OCc1ccco1,survivor count,"dose: 400.0 mg/kg/injection, schedule: Q01DX009 (ip), vehicle: carboxymethylcellulose (CMC)",0 of 3 and 1 of 6
Cc1cc(-c2ccc(NS(=O)(=O)c3ccccc3)c(C)c2)ccc1NS(=O)(=O)c1ccccc1,survivor count,"dose: 400.0 mg/kg/injection, schedule: Q01DX001 (ip), vehicle: saline with Tween-80",6 of 6
CCCCN(C)c1ncnc2[nH]ncc12,T/C,"dose: 100.0 mg/kg/injection, schedule: Q01DX009 (ip), vehicle: saline",130 % of control
same,survivor count,"dose: 200.0 mg/kg/injection, schedule: Q01DX009 (ip), vehicle: saline",0 of 6
same,survivor count,[7],0 of 6
CCCCCCN(CCCCCC)CCC(=O)Nc1ccc(S(=O)(=O)c2ccc(NC(=O)CCN(CCCCCC)CCCCCC)cc2)cc1,survivor count,[2],2 of 4
same,survivor count,[3],2 of 4
same,survivor count,[4],0 of 4
[Tl][CH]1C=CC=C1,survivor count,"dose: 200.0 mg/kg/injection, schedule: Q01DX001 (ip), vehicle: acetone",2 of 6
same,survivor count,"dose: 400.0 mg/kg/injection, schedule: Q01DX001 (ip), vehicle: acetone",0 of 6
NC(N)=N/N=C(/CC(=O)c1ccccc1)c1ccccc1,survivor count,"dose: 120.0 mg/kg/injection, schedule: Q01DX Z (ip), vehicle: carboxymethylcellulose (CMC)",1 of 6
same,survivor count,"dose: 960.0 mg/kg/injection, schedule: Q01DX Z (oral), vehicle: carboxymethylcellulose (CMC)",1 of 6
c1cn[nH]c1,survivor count,[4],2 of 4
